# Assay results published in article PMC3141038.
# By UniProt entry, the sequences of proteins in these tests, tags left out.
# UniProt Q13838: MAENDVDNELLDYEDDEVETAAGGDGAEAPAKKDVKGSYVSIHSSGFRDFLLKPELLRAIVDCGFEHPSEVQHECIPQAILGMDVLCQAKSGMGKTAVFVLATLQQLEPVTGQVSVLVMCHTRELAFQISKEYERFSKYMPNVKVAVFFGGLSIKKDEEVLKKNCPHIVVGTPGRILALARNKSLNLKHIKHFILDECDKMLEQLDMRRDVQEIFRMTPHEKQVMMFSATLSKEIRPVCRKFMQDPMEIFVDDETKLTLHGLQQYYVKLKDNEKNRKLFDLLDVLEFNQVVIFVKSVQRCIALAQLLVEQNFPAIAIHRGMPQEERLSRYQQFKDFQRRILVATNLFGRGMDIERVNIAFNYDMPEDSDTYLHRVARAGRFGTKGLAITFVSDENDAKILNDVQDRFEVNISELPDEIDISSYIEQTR
# Results are given in words; binding and its absence hold for the method and conditions named. For some assays here: In cells and extracts the contact can be indirect. Some entries that bind do so weakly or less than the wild type. For some assays here: Tags and fused reporters may be left off the sequences shown.
# T1: ORF57GFP (Kaposi's sarcoma-associated herpesvirus (KSHV)) (UniProt Q2HR75)
# T1 sequence: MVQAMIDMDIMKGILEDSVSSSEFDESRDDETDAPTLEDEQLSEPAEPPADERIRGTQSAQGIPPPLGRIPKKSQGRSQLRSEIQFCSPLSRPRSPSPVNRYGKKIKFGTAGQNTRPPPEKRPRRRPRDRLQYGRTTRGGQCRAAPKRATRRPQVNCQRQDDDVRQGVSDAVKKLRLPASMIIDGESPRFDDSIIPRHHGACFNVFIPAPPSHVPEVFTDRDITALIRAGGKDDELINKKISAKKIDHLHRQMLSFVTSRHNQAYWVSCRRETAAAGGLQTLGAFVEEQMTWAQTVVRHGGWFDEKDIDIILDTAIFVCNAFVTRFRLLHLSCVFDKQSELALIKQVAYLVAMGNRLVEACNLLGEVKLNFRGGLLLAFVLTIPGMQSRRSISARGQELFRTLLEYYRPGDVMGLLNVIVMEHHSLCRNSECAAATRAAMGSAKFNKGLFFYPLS
# T2: GST-ORF57 (KSHV ORF57 fused to GST) (Kaposi's sarcoma-associated herpesvirus (KSHV)) (UniProt Q2HR75)
# T2 sequence: T1 sequence
# T3: UIF-6xHis (UniProt Q96QD9)
# T3 sequence: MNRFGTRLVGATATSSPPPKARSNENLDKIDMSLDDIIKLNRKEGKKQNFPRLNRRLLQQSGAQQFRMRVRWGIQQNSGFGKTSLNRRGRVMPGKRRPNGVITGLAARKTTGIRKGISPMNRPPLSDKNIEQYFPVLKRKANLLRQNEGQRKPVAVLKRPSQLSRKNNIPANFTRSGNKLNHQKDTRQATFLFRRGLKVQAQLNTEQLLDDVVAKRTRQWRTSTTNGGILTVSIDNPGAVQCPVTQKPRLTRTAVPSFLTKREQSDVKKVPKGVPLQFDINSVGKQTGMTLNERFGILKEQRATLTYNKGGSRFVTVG
# T4: UIF-FLAG (UniProt Q96QD9)
# T4 sequence: T3 sequence
# T5: KSHV ORF57 (endogenous viral protein in reactivated BCBL-1 cells) (Kaposi's sarcoma-associated herpesvirus (KSHV)) (UniProt Q2HR75)
# T5 sequence: T1 sequence
# B1: UIF-FLAG (protein, UniProt Q96QD9 1-318)
# chain: T3 sequence
# B2: UIF-6xHis (protein, UniProt Q96QD9 1-318)
# chain: T3 sequence
# B3: ORF57-6xHis (protein, UniProt Q2HR75 1-455)
# chain: T1 sequence
# B4: ORF57GFP (protein, UniProt Q2HR75 1-455)
# chain: T1 sequence
# B5: UIF (endogenous, BCBL-1) (protein, UniProt Q96QD9 1-318)
# chain: T3 sequence
# Tests used:
# [1] = molecular target: T1, ORF57GFP (Kaposi's sarcoma-associated herpesvirus (KSHV)); experiment: co-IP; 293T cells cotransfected with pUIF-Flag and pEGFP, pUAP56-myc, pORF57GFP or pORF57PmutGFP; immunoprecipitation with GFP- or UAP56-specific antibodies; FLAG western blot
# [2] = molecular target: T2, GST-ORF57 (KSHV ORF57 fused to GST) (Kaposi's sarcoma-associated herpesvirus (KSHV)); experiment: pull-down; GST fusion proteins (equal amounts of total protein) immobilised to glutathione agarose beads, incubated with lysates of 293T cells transfected with pUIF-Flag; FLAG western blot; only the target purified
# GST-UAP56 [3] = molecular target: GST-UAP56 (UniProt Q13838); experiment: as above
# [4] = molecular target: T1, ORF57GFP (Kaposi's sarcoma-associated herpesvirus (KSHV)); experiment: co-IP; dose-dependent co-IP: 293T cells cotransfected with 0.5 ug pORF57GFP, 0.5 ug of pAly-myc or pUIF-Flag and increasing amounts (0, 0.1, 0.5, 0.8, 1.2 ug) of the other; GFP-TRAP-Affinity agarose beads; Myc or Flag western blot
# [5] = molecular target: T2, GST-ORF57 (KSHV ORF57 fused to GST) (Kaposi's sarcoma-associated herpesvirus (KSHV)); experiment: pull-down; competitive GST pull-down: GST-ORF57 on beads with a constant amount (1 µg) of Aly-His or UIF-His and increasing amounts (0, 0.5, 1, 2, 3 µg) of the other; both purified
# [6] = molecular target: T2, GST-ORF57 (KSHV ORF57 fused to GST) (Kaposi's sarcoma-associated herpesvirus (KSHV)); experiment: pull-down; both purified
# GST-UAP56 [7] = molecular target: GST-UAP56 (UniProt Q13838); experiment: pull-down; both purified
# UIF-6xHis = molecular target: T3, UIF-6xHis; experiment: pull-down; both purified
# UIF-FLAG [8] = molecular target: T4, UIF-FLAG; experiment: co-IP; as a3 but in the presence of RNase
# UIF-FLAG [9] = molecular target: T4, UIF-FLAG; experiment: co-IP; 293T cells transfected with pUIF-Flag and pEGFP or pORF57GFP; immunoprecipitation with polyclonal Flag-specific antibody, no RNase; GFP, FLAG and Aly western blots
# [10] = molecular target: T5, KSHV ORF57 (endogenous viral protein in reactivated BCBL-1 cells) (Kaposi's sarcoma-associated herpesvirus (KSHV)); experiment: co-IP; BCBL-1 cells reactivated with TPA (20 ng/ml); immunoprecipitation with ORF57- or UIF-specific antibodies, reciprocal western blots; endogenous proteins
binder,measurement,setting,value
B1,binding,[1],binds
same,binding,[2],binds
same,binding,GST-UAP56 [3],binds
same,binding,[4],binds
B2,binding,[5],binds
same,binding,[6],binds
same,binding,GST-UAP56 [7],binds
B3,binding,UIF-6xHis,binds
B4,binding,UIF-FLAG [8],binds
same,binding,UIF-FLAG [9],binds
B5,binding,[10],binds
